In paper PMC7884431:
The exact form of at least one protein or probe is not confirmed. No signal at the amounts used counts as a negative.

What was measured:
RFL79 (Rf1) = assay: EMSA; details: 28.1 nM-1.8 uM protein; Binding buffer 1x THE (34 mM Tris, 66 mM HEPES, 0.1 mM EDTA, pH 8), 0.2 M NaCl, 5 mM DTT, 5 mg/mL heparin, 0.1 mg/mL BSA; recombinant protein; protein details: N-terminal 6xHis-MBP (pETG-41K); label: 5'-fluorescein
RFL29a (Rf3) = assay: EMSA; details: 28.1 nM-1.8 uM protein; Binding buffer 1x THE (34 mM Tris, 66 mM HEPES, 0.1 mM EDTA, pH 8), 0.2 M NaCl, 5 mM DTT, 5 mg/mL heparin, 0.1 mg/mL BSA; recombinant protein; protein details: N-terminal 6xHis-MBP (pETG-41K); label: 5'-fluorescein

CCACUAGCAGGUUUACUGCUUUCU [BS orf256]
binding result (RFL79 (Rf1)): no binding | binding result (RFL29a (Rf3)): no binding

CUGUAAAUCAAGAAUUCCUCGAAGA [BS RFL79 (orf279)]
binding result (RFL29a (Rf3)): binds

CUUCACCUGUGCACUUAUUUAUGUAU [BS RFL29a (orf279)]
binding result (RFL79 (Rf1)): binds
